The text below walks through data of article PMC10640548.

The chains behind the UniProt entries cited, without tags or fusion partners.
UniProt Q00987: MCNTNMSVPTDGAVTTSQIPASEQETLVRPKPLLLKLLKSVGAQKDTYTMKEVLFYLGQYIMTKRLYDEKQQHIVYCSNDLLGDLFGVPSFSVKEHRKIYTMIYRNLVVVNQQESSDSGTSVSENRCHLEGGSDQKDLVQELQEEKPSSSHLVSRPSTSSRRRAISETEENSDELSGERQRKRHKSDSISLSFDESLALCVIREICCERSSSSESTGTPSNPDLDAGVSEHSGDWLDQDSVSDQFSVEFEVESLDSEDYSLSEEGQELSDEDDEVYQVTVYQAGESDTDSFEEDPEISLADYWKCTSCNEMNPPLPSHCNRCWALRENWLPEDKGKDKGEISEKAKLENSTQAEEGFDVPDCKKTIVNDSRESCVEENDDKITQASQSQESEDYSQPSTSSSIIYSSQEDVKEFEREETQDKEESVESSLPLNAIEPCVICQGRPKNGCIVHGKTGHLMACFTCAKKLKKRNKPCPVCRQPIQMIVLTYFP

Assay [1] concerns the target PPARγ protein (UniProt P37231). Kind of assay: co-IP; HEK293T cells; TNE buffer; FLAG-tagged protein precipitated on anti-FLAG M2 Affinity Gel and eluted with 200 μg/mL FLAG peptide; Western blot. For orientation: In western blotting, separated proteins are transferred to a membrane and probed.
In assay [2] the target is T1, PPARγ protein, P37231.
T1 chain: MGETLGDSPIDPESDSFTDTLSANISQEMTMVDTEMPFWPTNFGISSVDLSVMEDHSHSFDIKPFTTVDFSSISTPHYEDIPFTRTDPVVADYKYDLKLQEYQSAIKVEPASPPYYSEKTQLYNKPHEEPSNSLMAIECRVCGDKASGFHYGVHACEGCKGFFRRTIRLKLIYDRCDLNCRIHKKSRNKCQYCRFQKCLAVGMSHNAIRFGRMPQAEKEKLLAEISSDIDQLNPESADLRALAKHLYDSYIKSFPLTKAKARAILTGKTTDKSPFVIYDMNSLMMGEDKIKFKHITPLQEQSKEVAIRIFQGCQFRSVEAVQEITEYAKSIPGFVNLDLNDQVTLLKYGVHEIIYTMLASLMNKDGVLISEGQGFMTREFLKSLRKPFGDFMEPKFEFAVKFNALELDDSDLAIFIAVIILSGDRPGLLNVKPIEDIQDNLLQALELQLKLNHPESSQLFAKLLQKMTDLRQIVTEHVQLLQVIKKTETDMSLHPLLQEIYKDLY
Described as above. The following applies: remark: other sources report otherwise.

Results are given in words; binding and its absence hold for the method and conditions named. In cells and extracts the contact can be indirect. Some entries that bind do so weakly or less than the wild type.

For the molecule “MDM2 (from UniProt Q00987 1-491) (enzyme)”, in assay [1], the binding result is recorded as “binds”.

B1: STUB1, Q9UNE7 1-303 (enzyme)
chain: MKGKEEKEGGARLGAGGGSPEKSPSAQELKEQGNRLFVGRKYPEAAACYGRAITRNPLVAVYYTNRALCYLKMQQHEQALADCRRALELDGQSVKAHFFLGQCQLEMESYDEAIANLQRAYSLAKEQRLNFGDDIPSALRIAKKKRWNSIEERRIHQESELHSYLSRLIAAERERELEECQRNHEGDEDDSHVRAQQACIEAKHDKYMADMDELFSQVDEKRKKRDIPDYLCGKISFELMREPCITPSGITYDRKDIEEHLQRVGHFDPVTRSPLTQEQLIPNLAMKEVIDAFISENGWVEDY
For the molecule B1, the binding result in assay [2] is given as “no binding”.
